# Binding screen against folded nucleic acids

Targets (5′ to 3′):
T1: PreQ1 riboswitch RNA pseudoknot, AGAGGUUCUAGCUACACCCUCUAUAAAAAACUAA. From B. subtilis. Hit rate about 0.7% of about 24,000 compounds.
T2: TPP riboswitch RNA three-way junction, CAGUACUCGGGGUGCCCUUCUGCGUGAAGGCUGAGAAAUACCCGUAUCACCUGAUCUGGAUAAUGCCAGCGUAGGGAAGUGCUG. Hit rate about 0.7% of about 24,000 compounds.
T3: SAM-II riboswitch RNA pseudoknot, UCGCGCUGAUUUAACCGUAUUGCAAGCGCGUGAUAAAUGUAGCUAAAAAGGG. Hit rate about 1% of about 21,000 compounds.

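Compounds were printed on reactive glass slides in duplicate spots, a dye-labelled oligonucleotide was laid over them, and the fluorescence left after washing was read. For the PreQ1, TPP and SAM-II riboswitches the laboratory earlier reported (doi:10.1038/s41467-019-09493-3) 1 µM RNA, 2 h, and a rule that included a mean Z-score above 3 (spot signal-to-noise against the whole library), a score well above that on a control array, and duplicate spots agreeing (coefficient of variation under 100). The data file gives only the calls; its cut-offs may differ, and compounds hitting several targets are kept. The calls come from the array alone, and fixing a compound to the slide can hide its binding.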
Key: active = hit, inactive = tested without a hit.
This is an unselected part of the compounds tested.
A target missing from an entry has no call listed here.

With CC(C(=O)N1CCCC1)n1c(N)nnc1SCc1ccccc1 (stereo not shown) the screen gave T1: inactive; T2: inactive; T3: inactive.
With CC1CC(N(C(=O)c2cccc(F)c2)c2ccccc2)c2ccccc2N1 (stereo not shown) the screen gave T1: inactive; T2: inactive; T3: inactive.
With Cc1cc(Nc2ccccc2Cl)n2ncnc2n1 the screen gave T1: inactive; T2: inactive; T3: inactive.
With O=C(O)CCCCCNc1ncnc2ccc(Br)cc12 the screen gave T1: inactive; T2: inactive; T3: inactive.
With CCc1c(C)nc2ncnn2c1Nc1cc(Cl)ccc1OC the screen gave T1: inactive; T2: inactive; T3: inactive.
With CNCC(=O)N1c2ccccc2Sc2ccc(C(F)(F)F)cc21 the screen gave T1: inactive; T2: inactive; T3: inactive.
With CN(CC(O)COCc1ccc2c(c1)OCO2)C1CCCCC1 (stereo not shown) the screen gave T1: inactive; T2: inactive; T3: inactive.
With C#CC1(O)CCC2C3CCC4=Cc5oncc5CC4(C)C3CCC21C (stereo not shown) the screen gave T1: inactive; T2: inactive; T3: inactive.
With CNc1ccc(Br)c2c1C(=O)c1ccccc1C2=O the screen gave T1: inactive; T2: inactive; T3: inactive.
With CN(Cc1cccnc1Cl)C(=O)[C@H](N)c1ccccc1 the screen gave T1: inactive; T2: inactive; T3: inactive.
With Clc1cc2c(c(CSc3nc4ccccc4n4cccc34)c1)OCOC2 the screen gave T1: inactive; T2: inactive; T3: inactive.
With CC(=O)OCC1=C(C(=O)O)N2C(=O)[C@@H](N)[C@@H]2SC1 the screen gave T1: inactive; T2: inactive; T3: inactive.
With O=C(O)c1cncnc1N1CC[C@H]2NCCC[C@]2(CO)C1 the screen gave T1: inactive; T2: inactive; T3: inactive.
With OCc1ncccc1O the screen gave T1: inactive; T2: inactive; T3: inactive.
With CCCCc1nc2sc(C(=O)OCC)c(N)c2c2c1COC(C)(C)C2 the screen gave T1: inactive; T2: inactive; T3: inactive.
With CCOC(=O)c1cc(CNCCc2c(C)[nH]c3ccccc23)on1 the screen gave T1: inactive; T2: inactive; T3: inactive.
With CC1=CC(C)(C)Nc2c(C(=O)O)cc(C)cc21 the screen gave T1: inactive; T2: inactive; T3: inactive.
With CN(CCCc1cnn(C)c1)[C@H]1CN(Cc2ccoc2)C[C@@H]1O the screen gave T1: inactive; T2: inactive; T3: inactive.
With CCn1c(N)nc2cc(C(=O)NCc3ccc4nonc4c3)cnc21 the screen gave T1: inactive; T2: inactive; T3: inactive.
With O=C1C(=CNCCO)Nc2ccccc21 the screen gave T1: inactive; T2: inactive; T3: inactive.
With CCn1ccnc1C1CCCN(C(=O)c2n[nH]c(N)c2-c2ccccc2)C1 (stereo not shown) the screen gave T1: inactive; T2: inactive; T3: inactive.
With Cn1c(-c2ccccc2)cnc1NCc1ccc(Br)cc1 the screen gave T1: inactive; T2: inactive; T3: inactive.
With COc1ccc(C)cc1-n1nnc(-c2nc(-c3ccncc3)no2)c1N the screen gave T1: inactive; T2: inactive.
With O=C(CNc1ccc2ccccc2c1)NN=Cc1cc2c(cc1[N+](=O)[O-])OCO2 the screen gave T1: inactive; T2: inactive; T3: inactive.
With Cl.Cl.O=C1c2cccc3cccc(c23)C(=O)N1CCN1CCN(CC(O)COc2ccc3c(c2)OCO3)CC1 (stereo not shown) the screen gave T1: inactive; T2: inactive; T3: inactive.
With N#CC1=C(N)N2C(=C(C#N)C1c1ccc(Cl)cc1)Sc1ccccc12 (stereo not shown) the screen gave T1: inactive; T2: inactive; T3: inactive.
With CCn1c(-c2nonc2N)nc2cnc(Oc3cccc(NC(=O)c4ccc(OCCN5CCOCC5)cc4)c3)cc21 the screen gave T1: inactive; T2: inactive; T3: inactive.
With Nc1ccnc(N2CC(c3ccccn3)C2)n1 the screen gave T1: inactive; T2: inactive; T3: inactive.
With COc1ccc(C2C=C(c3ccccc3)Nc3nc(CCCO)nn32)cc1 (stereo not shown) the screen gave T1: inactive; T2: inactive; T3: inactive.
With Cc1cccn2c(Nc3ccccc3)c(-c3ccco3)nc12 the screen gave T1: inactive; T2: inactive; T3: inactive.
With Cc1nnc(SCC(=O)N2CCC3(CC2)c2ccccc2CC3O)o1 (stereo not shown) the screen gave T1: inactive; T2: inactive; T3: inactive.
With OCc1cc2ccccc2nc1-c1cc(O)cc(CCC2CCCCN2)c1 (stereo not shown) the screen gave T1: inactive; T2: inactive; T3: inactive.
With O=C(O)CCCCC(CCSCc1ccccc1)SCc1ccccc1 (stereo not shown) the screen gave T1: inactive; T2: inactive; T3: inactive.
With CN(Cc1noc(-c2ccccc2)n1)c1ncnc2c1CCNCC2 the screen gave T1: inactive; T2: inactive; T3: inactive.
With CN1CCCN=C1C=Cc1cccs1.O=C(O)c1cc2ccccc2c(Cc2c(O)c(C(=O)O)cc3ccccc23)c1O the screen gave T1: inactive; T2: inactive; T3: inactive.
With CCOc1ccc(CNc2ccc3c(c2)ncn3C2CCCCC2)cc1 the screen gave T1: inactive; T2: inactive; T3: inactive.
With Cc1cc(C)n(C(C)CNC(=O)c2cc3n(n2)CCNC3)n1 (stereo not shown) the screen gave T1: inactive; T2: inactive; T3: inactive.
With C[N+]1(C)[C@@H]2CC(OC(=O)C(O)(c3cccs3)c3cccs3)C[C@@H]1[C@H]1O[C@H]12 (stereo partly shown) the screen gave T1: inactive; T2: inactive; T3: inactive.
With CC(Nc1nc(N)nc2c1CCNCC2)c1cn2ccsc2n1 (stereo not shown) the screen gave T1: inactive; T2: inactive; T3: inactive.
With CC(C)CCNc1nc2ccccc2c2nc(-c3ccccc3)nn12 the screen gave T1: inactive; T2: inactive.

4 of the entries, repeated:

* O=C(O)CCCCC(CCSCc1ccccc1)SCc1ccccc1 (stereo not shown) | T1: inactive; T2: inactive; T3: inactive
* Cc1nnc(SCC(=O)N2CCC3(CC2)c2ccccc2CC3O)o1 (stereo not shown) | T1: inactive; T2: inactive; T3: inactive
* Cc1cc(C)n(C(C)CNC(=O)c2cc3n(n2)CCNC3)n1 (stereo not shown) | T1: inactive; T2: inactive; T3: inactive
* OCc1ncccc1O | T1: inactive; T2: inactive; T3: inactive

Calls as published in the ROBIN set (doi:10.1002/anie.202211358).